Measurements published in the supplement of paper PMC8728848.
Some of the results follow.

What was measured:
Experiment in all cases: glycan array binding signal (z-score within array); higher = stronger binding
Details in all cases: glycan notation: IUPAC condensed, linker removed
[1] = target: Fuc(a1-2)[Gal(a1-3)]Gal(b1-3)GlcNAc(b1-6)GalNAc
Method in brief: (§1)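 From the Consortium for Functional Glycomics database, 3228 arrays were curated, keeping only those whose protein sequence was available. Binding is given as a within-array Z-score averaged across arrays sharing a protein sequence and across linkers. Negative Z-scores can be read as non-binding.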

[2] = target: Fuc(a1-2)[Gal(a1-3)]Gal(b1-4)Glc
Method in brief: as §1

[3] = target: Fuc(a1-2)[Gal(a1-3)]Gal(b1-4)GlcNAc
Method in brief: as §1

[4] = target: Fuc(a1-2)[Gal(a1-3)]Gal(b1-4)GlcNAc(b1-2)Man
Method in brief: as §1

[5] = target: Fuc(a1-2)[Gal(a1-3)]Gal(b1-4)GlcNAc(b1-2)Man(a1-3)[Fuc(a1-2)[Gal(a1-3)]Gal(b1-4)GlcNAc(b1-2)Man(a1-6)]Man(b1-4)GlcNAc(b1-4)GlcNAc
Method in brief: as §1

[6] = target: Fuc(a1-2)[Gal(a1-3)]Gal(b1-4)GlcNAc(b1-2)Man(a1-3)[Fuc(a1-2)[Gal(a1-3)]Gal(b1-4)GlcNAc(b1-2)Man(a1-6)]Man(b1-4)GlcNAc(b1-4)[Fuc(a1-6)]GlcNAc
Method in brief: as §1

[7] = target: Fuc(a1-2)[Gal(a1-3)]Gal(b1-4)GlcNAc(b1-3)GalNAc
Method in brief: as §1

[8] = target: Fuc(a1-2)[Gal(a1-3)]Gal(b1-4)GlcNAc(b1-3)[Fuc(a1-2)[Gal(a1-3)]Gal(b1-4)GlcNAc(b1-6)]GalNAc
Method in brief: as §1

[9] = target: Fuc(a1-2)[Gal(a1-3)]Gal(b1-4)GlcNAc(b1-6)GalNAc
Method in brief: as §1

[10] = target: Fuc(a1-2)[Gal(a1-3)]Gal(b1-4)[Fuc(a1-3)]Glc
Method in brief: as §1

[11] = target: Fuc(a1-2)[Gal(a1-3)]Gal(b1-4)[Fuc(a1-3)]GlcNAc
Method in brief: as §1

[12] = target: Fuc(a1-2)[Gal(a1-3)]Gal(b1-4)[Fuc(a1-3)]GlcNAc(b1-3)GalNAc
Method in brief: as §1

[13] = target: Fuc(a1-2)[Gal(a1-4)]Gal(b1-4)GlcNAc
Method in brief: as §1

[14] = target: Fuc(a1-2)[GalNAc(a1-3)]Gal
Method in brief: as §1

[15] = target: Fuc(a1-2)[GalNAc(a1-3)]Gal(b1-3)GalNAc(a1-3)[Fuc(a1-2)]Gal(b1-4)GlcNAc
Method in brief: as §1

[16] = target: Fuc(a1-2)[GalNAc(a1-3)]Gal(b1-3)GalNAc(b1-3)Gal(a1-4)Gal(b1-4)Glc
Method in brief: as §1

[17] = target: Fuc(a1-2)[GalNAc(a1-3)]Gal(b1-3)GlcNAc
Method in brief: as §1

[18] = target: Fuc(a1-2)[GalNAc(a1-3)]Gal(b1-3)GlcNAc(b1-2)Man(a1-3)[Fuc(a1-2)[GalNAc(a1-3)]Gal(b1-3)GlcNAc(b1-2)Man(a1-6)]Man(b1-4)GlcNAc(b1-4)GlcNAc
Method in brief: as §1

[19] = target: Fuc(a1-2)[GalNAc(a1-3)]Gal(b1-3)GlcNAc(b1-2)Man(a1-3)[Fuc(a1-2)[GalNAc(a1-3)]Gal(b1-3)GlcNAc(b1-2)Man(a1-6)]Man(b1-4)GlcNAc(b1-4)[Fuc(a1-6)]GlcNAc
Method in brief: as §1

[20] = target: Fuc(a1-2)[GalNAc(a1-3)]Gal(b1-3)GlcNAc(b1-3)GalNAc
Method in brief: as §1

[21] = target: Fuc(a1-2)[GalNAc(a1-3)]Gal(b1-3)GlcNAc(b1-6)GalNAc
Method in brief: as §1

[22] = target: Fuc(a1-2)[GalNAc(a1-3)]Gal(b1-4)Glc
Method in brief: as §1

[23] = target: Fuc(a1-2)[GalNAc(a1-3)]Gal(b1-4)GlcNAc
Method in brief: as §1

[24] = target: Fuc(a1-2)[GalNAc(a1-3)]Gal(b1-4)GlcNAc(b1-2)Man
Method in brief: as §1

[25] = target: Fuc(a1-2)[GalNAc(a1-3)]Gal(b1-4)GlcNAc(b1-2)Man(a1-3)[Fuc(a1-2)[GalNAc(a1-3)]Gal(b1-4)GlcNAc(b1-2)Man(a1-6)]Man(b1-4)GlcNAc(b1-4)GlcNAc
Method in brief: as §1

[26] = target: Fuc(a1-2)[GalNAc(a1-3)]Gal(b1-4)GlcNAc(b1-2)Man(a1-3)[Fuc(a1-2)[GalNAc(a1-3)]Gal(b1-4)GlcNAc(b1-2)Man(a1-6)]Man(b1-4)GlcNAc(b1-4)[Fuc(a1-6)]GlcNAc
Method in brief: as §1

[27] = target: Fuc(a1-2)[GalNAc(a1-3)]Gal(b1-4)GlcNAc(b1-3)Gal(b1-4)GlcNAc
Method in brief: as §1

[28] = target: Fuc(a1-2)[GalNAc(a1-3)]Gal(b1-4)GlcNAc(b1-3)Gal(b1-4)GlcNAc(b1-3)Gal(b1-4)GlcNAc
Method in brief: as §1

[29] = target: Fuc(a1-2)[GalNAc(a1-3)]Gal(b1-4)GlcNAc(b1-3)GalNAc
Method in brief: as §1

[30] = target: Fuc(a1-2)[GalNAc(a1-3)]Gal(b1-4)GlcNAc(b1-3)[Fuc(a1-2)[GalNAc(a1-3)]Gal(b1-4)GlcNAc(b1-6)]GalNAc
Method in brief: as §1

[31] = target: Fuc(a1-2)[GalNAc(a1-3)]Gal(b1-4)GlcNAc(b1-6)GalNAc
Method in brief: as §1

[32] = target: Fuc(a1-2)[GalNAc(a1-3)]Gal(b1-4)[Fuc(a1-3)]GlcNAc
Method in brief: as §1

[33] = target: Fuc(a1-2)[GalNAc(a1-3)]Gal(b1-4)[Fuc(a1-3)]GlcNAc(b1-3)GalNAc
Method in brief: as §1

[34] = target: Fuc(a1-2)[GalNAc(a1-4)]Gal(b1-4)GlcNAc
Method in brief: as §1

[35] = target: Fuc(a1-2)[GalNAc(b1-3)]Gal
Method in brief: as §1

Fuc(a1-3)GlcNAc = target: Fuc(a1-3)GlcNAc
Method in brief: as §1

[36] = target: Fuc(a1-3)[Gal(b1-4)]Glc6S
Method in brief: as §1

[37] = target: Fuc(a1-3)[Gal(b1-4)]GlcNAc
Method in brief: as §1

[38] = target: Fuc(a1-3)[Gal(b1-4)]GlcNAc(b1-2)Man
Method in brief: as §1

[39] = target: Fuc(a1-3)[Gal(b1-4)]GlcNAc(b1-2)Man(a1-3)[Fuc(a1-3)[Gal(b1-4)]GlcNAc(b1-2)Man(a1-6)]Man(b1-4)GlcNAc(b1-4)GlcNAc
Method in brief: as §1

[40] = target: Fuc(a1-3)[Gal(b1-4)]GlcNAc(b1-2)Man(a1-3)[Fuc(a1-3)[Gal(b1-4)]GlcNAc(b1-2)Man(a1-6)]Man(b1-4)GlcNAc(b1-4)[Fuc(a1-6)]GlcNAc
Method in brief: as §1

[41] = target: Fuc(a1-3)[Gal(b1-4)]GlcNAc(b1-3)Gal(b1-3)[Fuc(a1-4)]GlcNAc
Method in brief: as §1

[42] = target: Fuc(a1-3)[Gal(b1-4)]GlcNAc(b1-3)Gal(b1-4)[Fuc(a1-3)]GlcNAc
Method in brief: as §1

[43] = target: Fuc(a1-3)[Gal(b1-4)]GlcNAc(b1-3)Gal(b1-4)[Fuc(a1-3)]GlcNAc(b1-3)Gal(b1-4)[Fuc(a1-3)]GlcNAc
Method in brief: as §1

[44] = target: Fuc(a1-3)[Gal(b1-4)]GlcNAc(b1-3)GalNAc
Method in brief: as §1

[45] = target: Fuc(a1-3)[Gal(b1-4)]GlcNAc(b1-4)Gal(b1-4)[Fuc(a1-3)]GlcNAc
Method in brief: as §1

[46] = target: Fuc(a1-3)[Gal(b1-4)]GlcNAc(b1-4)Gal(b1-4)[Fuc(a1-3)]GlcNAc(b1-4)Gal(b1-4)[Fuc(a1-3)]GlcNAc
Method in brief: as §1

[47] = target: Fuc(a1-3)[Gal(b1-4)]GlcNAc(b1-6)GalNAc
Method in brief: as §1

[48] = target: Fuc(a1-3)[Gal(b1-4)]GlcNAc(b1-6)[Gal(b1-3)GlcNAc(b1-3)]Gal(b1-4)Glc
Method in brief: as §1

[49] = target: Fuc(a1-3)[Gal(b1-4)]GlcNAc(b1-6)[Neu5Ac(a2-3)Gal(b1-3)]GalNAc
Method in brief: as §1

[50] = target: Fuc(a1-3)[Gal(b1-4)]GlcNAc6S
Method in brief: as §1

[51] = target: Fuc(a1-3)[Gal3S(b1-4)]Glc
Method in brief: as §1

[52] = target: Fuc(a1-3)[Gal3S(b1-4)]GlcNAc
Method in brief: as §1

[53] = target: Fuc(a1-3)[Gal3S(b1-4)]GlcNAc6S
Method in brief: as §1

[54] = target: Fuc(a1-3)[GalNAc(b1-4)]GlcNAc
Method in brief: as §1

[55] = target: Fuc(a1-3)[GalNAc(b1-4)]GlcNAc6S
Method in brief: as §1

Fuc(a1-4)GlcNAc = target: Fuc(a1-4)GlcNAc
Method in brief: as §1

Fuc(b1-3)GlcNAc = target: Fuc(b1-3)GlcNAc
Method in brief: as §1

Gal(a1-2)Gal = target: Gal(a1-2)Gal
Method in brief: as §1

Gal(a1-3)Gal = target: Gal(a1-3)Gal
Method in brief: as §1

## KISKRILTGKK [NK11 (Sus scrofa)]
[1]
  glycan array binding signal (z-score): 0.117
[2]
  glycan array binding signal (z-score): -0.11
[3]
  glycan array binding signal (z-score): -0.609
[4]
  glycan array binding signal (z-score): -0.085
[5]
  glycan array binding signal (z-score): 0.702
[6]
  glycan array binding signal (z-score): -0.848
[7]
  glycan array binding signal (z-score): -0.484
[8]
  glycan array binding signal (z-score): -0.577
[9]
  glycan array binding signal (z-score): -0.805
[10]
  glycan array binding signal (z-score): -1.04
[11]
  glycan array binding signal (z-score): 0.133
[12]
  glycan array binding signal (z-score): 0.477
[13]
  glycan array binding signal (z-score): 0.014
[14]
  glycan array binding signal (z-score): -0.001
[15]
  glycan array binding signal (z-score): 0.547
[16]
  glycan array binding signal (z-score): 1.06
[17]
  glycan array binding signal (z-score): 0.316
[18]
  glycan array binding signal (z-score): -0.032
[19]
  glycan array binding signal (z-score): 0.353
[20]
  glycan array binding signal (z-score): 0.052
[21]
  glycan array binding signal (z-score): -0.371
[22]
  glycan array binding signal (z-score): 0.231
[23]
  glycan array binding signal (z-score): 0.037
[24]
  glycan array binding signal (z-score): -1.03
[25]
  glycan array binding signal (z-score): 0.922
[26]
  glycan array binding signal (z-score): 0.421
[27]
  glycan array binding signal (z-score): -0.818
[28]
  glycan array binding signal (z-score): 0.599
[29]
  glycan array binding signal (z-score): -1.25
[30]
  glycan array binding signal (z-score): 0.196
[31]
  glycan array binding signal (z-score): -0.253
[32]
  glycan array binding signal (z-score): -0.15
[33]
  glycan array binding signal (z-score): 0.275
[34]
  glycan array binding signal (z-score): -0.524
[35]
  glycan array binding signal (z-score): -0.608
Fuc(a1-3)GlcNAc
  glycan array binding signal (z-score): -0.64
[36]
  glycan array binding signal (z-score): -0.446
[37]
  glycan array binding signal (z-score): -0.409
[38]
  glycan array binding signal (z-score): 0.202
[39]
  glycan array binding signal (z-score): -0.485
[40]
  glycan array binding signal (z-score): 0.444
[41]
  glycan array binding signal (z-score): -0.463
[42]
  glycan array binding signal (z-score): 0.057
[43]
  glycan array binding signal (z-score): -1.85
[44]
  glycan array binding signal (z-score): 0.611
[45]
  glycan array binding signal (z-score): -0.315
[46]
  glycan array binding signal (z-score): -0.886
[47]
  glycan array binding signal (z-score): 0.212
[48]
  glycan array binding signal (z-score): -0.334
[49]
  glycan array binding signal (z-score): -0.094
[50]
  glycan array binding signal (z-score): 0.867
[51]
  glycan array binding signal (z-score): 0.463
[52]
  glycan array binding signal (z-score): 0.048
[53]
  glycan array binding signal (z-score): 1.22
[54]
  glycan array binding signal (z-score): -0.401
[55]
  glycan array binding signal (z-score): 0.024
Fuc(a1-4)GlcNAc
  glycan array binding signal (z-score): -0.161
Fuc(b1-3)GlcNAc
  glycan array binding signal (z-score): -0.52
Gal(a1-2)Gal
  glycan array binding signal (z-score): -0.462
Gal(a1-3)Gal
  glycan array binding signal (z-score): 0.306
